Measured values published in patent publication US20110152212A1, “Aqueous Formulations” (priority 2007, published 2011).
At least one compound was matched to its structure with a doubt left.

Test: Time for solid drug to dissolve in acidified hydrogel mixture at ambient temperature with stirring
Format: physicochemical
Settings: 0.5 wt % drug in 2 wt % KH-20 hydrogel, pH about 2.5, ambient temperature
Procedure: A 0.5 wt % formulation of a hydrogel was prepared comprising Poval 220 polyvinylalcohol and the butylidene polymer of Example 1 in the weight ratio 10:1. The pH of the mixture was lowered to about 2.5 by addition of hydrochloric acid and, with the pH at the lowered level, doxorubicin, a solid red powder, was added at ambient temperature with stirring to give a level of 0.2 wt % doxorubicin in the mixture. […] After the formulation has been prepared, the pH may be raised to about 7 by addition of alkali to neutralise it.
A 2 wt % formulation of a hydrogel was prepared comprising KH-20 polyvinylalcohol and the butylidene polymer of Example 1 in a weight ratio 10:1. The pH of the mixture was lowered to about 2.5, by addition of hydrochloric acid. Then, doxycycline, in a solid form, was added at ambient temperature with stirring to give a level of 0.5 wt % of doxycycline in the mixture. The doxycycline appeared to dissolve in the water within about 15 minutes to give a clear pale yellow mixture which appeared to comprise a solution but more likely comprises complexed doxycycline.

C[C@H]1c2cccc(O)c2C(=O)C2=C(O)[C@]3(O)C(=O)C(C(N)=O)=C(O)[C@@H](N(C)C)[C@@H]3[C@@H](O)[C@@H]21 [doxycycline]
appeared to dissolve in the water (time): ≤ 15 min
